Measurements reported in PubChem BioAssay AID1159578 (Peter MacCallum Cancer Centre, 2015).

- Screen: 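Genome-wide hunt for genes controlling movement of lymphatic endothelial cells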 (primary screen)
- Cell system: human lymphatic endothelial cells
- Reagents: siRNA pool against human genes, 40 nM
- Time to read-out: 48 h after transfection
- Detection: 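High-content imaging of dye-stained cells in a scratch assay measures filled wound area and nuclei per well; duplicate means given as ratio to mock and robust z-score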
- Direction: migration robust z-score: higher = faster migration into the scratch; migration relative to mock: higher = more scratch area covered than mock; nuclei per well: higher = more cells in the well
- Call rule: 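Migration changed when robust z exceeds 2 or falls below -2 and mean nuclei number is at least 3300; otherwise not called changed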
- Meaning of the calls: active = migration changed; inactive = no migration change, or too few cells
This is an unselected part of about 18,000 deposited reagents. In the full data, about 1,030 (5.7%) were called active. 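Inactive calls also include pools with fewer than 3300 nuclei, whose migration was not assessed.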 Raw values vary from plate to plate and are shown uncorrected. A number with no mark means an inactive call.

| Gene | migration robust z-score | migration class with cell-count check | migration relative to mock | nuclei per well, duplicate mean |
| --- | --- | --- | --- | --- |
| GOLGA7B (golgin A7 family member B) | -1.33 | migration z between -2 and 2; enough cells | 0.54 | 6019 |
| RNF216 (ring finger protein 216) | -0.72 | migration z between -2 and 2; enough cells | 0.66 | 4972 |
| CCDC171 (coiled-coil domain containing 171) | -0.04 | migration z between -2 and 2; enough cells | 0.87 | 5144 |
| SLC7A11 | 1.72 | migration z between -2 and 2; enough cells | 1.14 | 6301 |
| PPM1J (protein phosphatase, Mg2+/Mn2+ dependent 1J) | -0.31 | migration z between -2 and 2; enough cells | 0.74 | 4860 |
| ASCC3 (activating signal cointegrator 1 complex subunit 3) | 0.26 | migration z between -2 and 2; enough cells | 0.86 | 5575 |
| CD99L2 (CD99 molecule like 2) | 1.71 | migration z between -2 and 2; enough cells | 1.33 | 4739 |
| LPCAT4 (lysophosphatidylcholine acyltransferase 4) | 1.63 | migration z between -2 and 2; enough cells | 1.29 | 5878 |
| ERC1 (ELKS/RAB6-interacting/CAST family member 1) | -1.29 | migration z between -2 and 2; enough cells | 0.55 | 4845 |
| EXT2 (exostosin glycosyltransferase 2) | 1.3 | migration z between -2 and 2; enough cells | 1.06 | 6634 |
| IQCC (IQ motif containing C) | -0.15 | migration z between -2 and 2; enough cells | 0.84 | 5730 |
| SDK2 (sidekick cell adhesion molecule 2) | -1.57 | migration z between -2 and 2; enough cells | 0.48 | 5798 |
| TBC1D15 (TBC1 domain family member 15) | 1.71 | migration z between -2 and 2; enough cells | 1.33 | 6659 |
| THTPA (thiamine triphosphatase) | -0.42 | migration z between -2 and 2; enough cells | 0.73 | 4806 |
| USP38 (ubiquitin specific peptidase 38) | 0.03 | migration z between -2 and 2; enough cells | 0.81 | 5219 |
| FADS6 (fatty acid desaturase 6) | -0.21 | migration z between -2 and 2; enough cells | 0.76 | 6314 |
| DHPS (deoxyhypusine synthase) | -1.14 | migration z between -2 and 2; enough cells | 0.58 | 5564 |
| BET1 (Bet1 golgi vesicular membrane trafficking protein) | -0.04 | migration z between -2 and 2; enough cells | 0.88 | 4989 |
| CD46 (CD46 molecule) | 1.08 | migration z between -2 and 2; enough cells | 1.17 | 6639 |
| NDUFV2 (NADH:ubiquinone oxidoreductase core subunit V2) | 0.39 | migration z between -2 and 2; enough cells | 0.88 | 4710 |
| PECAM1 (platelet and endothelial cell adhesion molecule 1) | 0.77 | migration z between -2 and 2; enough cells | 1.08 | 6177 |
| ZNF19 (zinc finger protein 19) | 1.09 | migration z between -2 and 2; enough cells | 1.17 | 6837 |
| CYP2U1 (cytochrome P450 family 2 subfamily U member 1) | 1.09 | migration z between -2 and 2; enough cells | 1.02 | 5776 |
| ZDHHC1 (zDHHC palmitoyltransferase 1) | -1.23 | migration z between -2 and 2; enough cells | 0.56 | 4756 |
| KLF15 (KLF transcription factor 15) | 0.96 | migration z between -2 and 2; enough cells | 0.99 | 6568 |

Part of the list above, reduced to “migration robust z-score”.
CD99L2 (CD99 molecule like 2) = 1.71
LPCAT4 (lysophosphatidylcholine acyltransferase 4) = 1.63
ERC1 (ELKS/RAB6-interacting/CAST family member 1) = -1.29
EXT2 (exostosin glycosyltransferase 2) = 1.3
IQCC (IQ motif containing C) = -0.15
SDK2 (sidekick cell adhesion molecule 2) = -1.57
TBC1D15 (TBC1 domain family member 15) = 1.71
THTPA (thiamine triphosphatase) = -0.42
USP38 (ubiquitin specific peptidase 38) = 0.03

Next reagents follow.
| Gene | migration robust z-score | migration class with cell-count check | migration relative to mock | nuclei per well, duplicate mean |
| --- | --- | --- | --- | --- |
| KPNA1 (karyopherin subunit alpha 1) | -0.05 | migration z between -2 and 2; enough cells | 0.8 | 5866 |
| RANBP17 (RAN binding protein 17) | 0.31 | migration z between -2 and 2; enough cells | 0.96 | 6195 |
| NOL9 (nucleolar protein 9) | 0.3 | migration z between -2 and 2; enough cells | 0.96 | 6971 |
| GLIS1 (GLIS family zinc finger 1) | 0.02 | migration z between -2 and 2; enough cells | 0.89 | 6434 |
| GOLGA1 (golgin A1) | -0.32 | migration z between -2 and 2; enough cells | 0.8 | 5036 |
| SLC39A13 | 0.62 | migration z between -2 and 2; enough cells | 1.05 | 4542 |
| TMEM26 (transmembrane protein 26) | -0.71 | migration z between -2 and 2; enough cells | 0.7 | 5795 |
| CCDC80 (coiled-coil domain containing 80) | 0.12 | migration z between -2 and 2; enough cells | 0.92 | 5679 |
| MORC1 (MORC family CW-type zinc finger 1) | 1.53 | migration z between -2 and 2; enough cells | 1.1 | 3518 |
| KAT2A (lysine acetyltransferase 2A) | -0.83 | migration z between -2 and 2; enough cells | 0.64 | 5576 |
| OR5C1 (olfactory receptor family 5 subfamily C member 1) | -0.32 | migration z between -2 and 2; enough cells | 0.8 | 5175 |
| PRKX (protein kinase cAMP-dependent X-linked catalytic subunit) | 0.08 | migration z between -2 and 2; enough cells | 0.82 | 4920 |
| BCS1L (BCS1 ubiquinol-cytochrome c reductase complex chaperone) | -0.11 | migration z between -2 and 2; enough cells | 0.78 | 5716 |
| EMP1 (epithelial membrane protein 1) | 0.06 | migration z between -2 and 2; enough cells | 0.9 | 6463 |
| SLITRK6 (SLIT and NTRK like family member 6) | 0.09 | migration z between -2 and 2; enough cells | 0.9 | 6366 |
| PPP2CA (protein phosphatase 2 catalytic subunit alpha) | -0.52 | migration z between -2 and 2; enough cells | 0.7 | 3676 |
| PRR35 (proline rich 35) | 0.22 | migration z between -2 and 2; enough cells | 0.94 | 6200 |
| PRKAG2 (protein kinase AMP-activated non-catalytic subunit gamma 2) | -0.72 | migration z between -2 and 2; enough cells | 0.66 | 5092 |
| CXCR3 (C-X-C motif chemokine receptor 3) | 0.29 | migration z between -2 and 2; enough cells | 0.86 | 6479 |
| LORICRIN (loricrin cornified envelope precursor protein) | -0.66 | migration z between -2 and 2; enough cells | 0.71 | 6052 |
| CHST8 (carbohydrate sulfotransferase 8) | -3.45 (active) | migration z below -2; enough cells | 0.14 | 4194 |
| ENPP6 (ectonucleotide pyrophosphatase/phosphodiesterase 6) | 0.71 | migration z between -2 and 2; enough cells | 1.07 | 6742 |
| PCSK2 (proprotein convertase subtilisin/kexin type 2) | -0.1 | migration z between -2 and 2; enough cells | 0.78 | 4496 |
| CENPBD1P (CENPB DNA-binding domain containing 1, pseudogene) | 0.12 | migration z between -2 and 2; enough cells | 0.92 | 6300 |
| TEX26 (testis expressed 26) | -0.38 | migration z between -2 and 2; enough cells | 0.78 | 5499 |
| GMPR2 (guanosine monophosphate reductase 2) | -0.16 | migration z between -2 and 2; enough cells | 0.78 | 5328 |
| KCNJ2 (potassium inwardly rectifying channel subfamily J member 2) | 0.42 | migration z between -2 and 2; enough cells | 0.88 | 5336 |
| PDZK1 (PDZ domain containing 1) | 0.31 | migration z between -2 and 2; enough cells | 0.86 | 6772 |
| EFNA3 (ephrin A3) | -2.1 (active) | migration z below -2; enough cells | 0.4 | 4419 |
| CDKN1C (cyclin dependent kinase inhibitor 1C) | -2.05 (active) | migration z below -2; enough cells | 0.41 | 3860 |
| PSMD8 (proteasome 26S subunit, non-ATPase 8) | -0.19 | migration z between -2 and 2; enough cells | 0.84 | 6124 |
| CIMAP1A (ciliary microtubule associated protein 1A) | 0.6 | migration z between -2 and 2; enough cells | 1.04 | 5973 |
